These are yes or no findings as the source states them, for the method shown. A result given as binding can be weak or reduced; the word gives no strength.
Target: human GPC3 (Glypican-3) (human, UniProt P51654 25-580)
Assay: FACS on GPC3-CHO-K1, HepG2 and Huh-7 cells

Chains of the proteins cited; added tags and fusions are not shown. Lines headed by an entry give the natural chain unless they say otherwise; changes in a name come on top.
UniProt P51654: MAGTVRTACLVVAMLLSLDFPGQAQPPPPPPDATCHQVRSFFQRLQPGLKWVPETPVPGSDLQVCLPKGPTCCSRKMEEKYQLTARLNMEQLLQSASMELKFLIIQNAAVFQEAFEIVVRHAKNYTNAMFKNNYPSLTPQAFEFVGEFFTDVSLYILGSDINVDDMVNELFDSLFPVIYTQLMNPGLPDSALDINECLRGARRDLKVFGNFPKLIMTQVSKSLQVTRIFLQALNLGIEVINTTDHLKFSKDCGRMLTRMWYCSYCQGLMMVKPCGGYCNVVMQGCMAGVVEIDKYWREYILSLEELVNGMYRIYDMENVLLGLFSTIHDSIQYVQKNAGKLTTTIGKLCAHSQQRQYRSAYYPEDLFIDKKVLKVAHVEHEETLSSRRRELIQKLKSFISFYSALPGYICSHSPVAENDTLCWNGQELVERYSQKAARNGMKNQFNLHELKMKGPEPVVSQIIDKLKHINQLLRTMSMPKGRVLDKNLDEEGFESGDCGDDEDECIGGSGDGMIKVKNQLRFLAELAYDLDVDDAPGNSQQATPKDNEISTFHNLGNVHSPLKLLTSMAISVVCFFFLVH

Binder	binding
Hu 52H5D3B8-7 (antibody, human IgG1, kappa, V domains shown, also called humanized GPC3 antibody Hu 52H5D3B8-7) VH: EVQLVQSGAEVKKPGASVKVSCKASGYTFTDYEMHWVRQAPGQGLEWMGAIHPGSGGTAYNQKFKGRVTMTADKSISTAYMELSRLRSDDTAVYYCTRFYSYAYWGQGTLVTVSS VL: DVVMTQTPLSLSVTPGQPASISCRSSQSLVHSNGNTYLQWYLQKPGQSPQLLIYKVSNRFSGVPDRFSGSGSGTDFTLKISRVEAEDVGVYYCSQSIHVPYTFGGGTKVEIKR	binds
Y035 CDRs with Hu 52H5D3B8-7 FRs (antibody, V domains shown, detected with anti-human IgG) VH: EVQLVQSGAEVKKPGASVKVSCKASGYTFTDYEMHWVRQAPGQGLEWMGAIHPGSGDTAYNQRFKGRVTMTADKSISTAYMELSRLRSDDTAVYYCTRFYSYAYWGQGTLVTVSS VL: DVVMTQTPLSLSVTPGQPASISCRSSQSLVHSNGNTYLQWYLQKPGQSPQLLIYKVSNRFSGVPDRFSGSGSGTDFTLKISRVEAEDVGVYYCSQSIYVPYTFGGGTKVEIK	binds

Source: patent publication EP4775226A1, “ANTIBODY DRUG CONJUGATE TARGETING GPC3 AND USE THEREOF” (priority 2023, dated 2025)
